The source of these data is PubChem BioAssay AID687030 (Broad Institute, 2013).

SMILES strings stand for the structures. The list shows a part of the results, in another mix than the full data. Measured potencies and affinities stand elsewhere. Activity calls are given as the source filed them. The rule behind the calls is not given here.

This experiment in a line: BHK-21 cell toxicity, dose response, cytotoxicity control, plate reader, cherry-pick samples (AID 687030).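 Note: cells were exposed to compound for three days before reading.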 The following applies: BHK-21 cells; at 19.5 µM (top of the series).
For the compound `CCCCCCCCc1ccc(O)cc1`, the activity change, negative = toxicity was inactive: -4.83%.
